US20130090280A1, “CLEANING COMPOSITIONS AND METHODS” (HONEYWELL INTERNATIONAL INC., priority 2011, published 2013)

Test: environmental properties of solvents

dichloropentafluoropropane [HCFC-225]
ODP (Ozone Depletion Potential): 0.03
